Values after ≈ are worked out from the molar mass of the structure shown. Like-named read-outs stand apart in the source and are kept apart here. At least one peptide structure holds a part that was inferred or is arguable (an end, a ring closure or a residue).
Assays:
E. cloacae = assay type: cell-based, Enterobacter cloacae
Method: (§1) The minimum inhibitory concentrations of (MIC) of CEME, CEMA and melittin were determined for a number of different bacteria (Table 2). Briefly, cells were grown overnight at 37° C. in LB-S (Luria broth without any salt supplement) and diluted one in 10,000 in the same medium to give concentrations of about 10^4 to 10^5 CFU/ml. The broth dilutions were set up in a 96 well microtiter plate by putting 200 μl of LB-S containing the initial concentration of antibiotic or compound in column 1 and 100 μl of the same medium in columns 2-12. The compounds were diluted by taking 100 μl of broth from column 1 and mixing it with column 2, resulting in a one in two dilution. This was continued to column 10. Finally, 10 μl of bacteria were pipetted into columns 1-11, and the plates incubated overnight at 37° C. The next day the plates were scored for growth in the wells, and the MIC determined.
Bacteria included the Bort strain of E. coli (Bortolussi, et al., Inf. Immun., 25:293, 1979) that was originally derived from a case of neonatal meningitis, and which is therefore considered a relevant pathogenic strain to study, and the 0111:B4 strain of E. coli (kindly provided by Dr. D. Morrison) which is a standard source of endotoxin. (Kelly, et al., Inf. Immun., 59:4491, 1991). […]

P. aeruginosa strain M2 = test: Survival of neutropenic mice challenged intraperitoneally with bacteria; assay type: in vivo, Pseudomonas aeruginosa; conditions: single dose 200 μg (8.7 mg/kg) i.p.
Method: To measure the anti-bacterial effect of peptides, a similar strategy was employed. Female CD-1 mice were rendered neutropenic with 3 injections of cyclophosphamide as described previously. (Cryz, S. J., Inf. Immun., 39(2): 1067, 1983) An […] dose of Pseudomonas aeruginosa strain M2 (approximately 10^2 organisms per mouse) was injected intra peritoneally and in the single dose experiments, 100 μl of PBS or sterile water containing 200 μg (8.7 mg/kg) of a cationic peptide was injected immediately afterwards. […] Survival was recorded at 24 and 48 hours.

P. AERUGINOSA H309 = assay type: cell-based, Pseudomonas aeruginosa
Method: as §1, with “Briefly,” for “The minimum inhibitory concentrations of (MIC) of CEME, CEMA and melittin were determined for a number of different bacteria (Table 2). Briefly,”

[1] = test system: P. aeruginosa H309 or E. cloacae 218R1; test: Lysozyme lysis assay (outer membrane permeabilization); assay type: cell-based, Pseudomonas aeruginosa; Enterobacter cloacae; conditions: 50 μg/ml lysozyme, varying concentrations of compound
Method: Membrane permeabilization by polycationic compounds was measured in two different assays. The first assay measured membrane disruption by the ability of lysozyme to reach the periplasm and cause cell lysis. […] The uptake of lysozyme into whole cells due to membrane permeabilization by various compounds was previously described in Hancock, et al., Antimicrobial Agents and Chemo., 19:777, 1981. Overnight cultures of P. aeruginosa H309 or E. cloacae 218R1 grown in LB-S were diluted 1 in 50 in fresh medium and grown to an OD600 =0.5-0.6. The cells were harvested in a Silencer H-103N clinical centrifuge at 1800 g for 10 min, washed once with one volume of assay buffer (5 mM HEPES pH 7.2, 5 mM KCN), and resuspended in the same buffer to an OD600 of 0.5. Assays consisted of 600 μl of cells with 50 μg/ml of chicken egg white lysozyme and varying concentrations of cationic compounds. Cell lysis was measured as a decrease in the OD600 in a Perkin-Elmer dual beam spectrophotometer. Parallel experiments performed without lysozyme enabled the measurement of the lytic activity of the compounds themselves. To test whether or not permeability to lysozyme could be inhibited by divalent cations, various concentrations of MgCl2 were added to the assay after the addition of lysozyme and before the addition of the test compound.

E. coli = assay type: cell-based, Escherichia coli
Method: as §1
Bacteria included the Bort strain of E. coli (Bortolussi, et al., Inf. Immun., 25:293, 1979) that was originally derived from a case of neonatal meningitis, and which is therefore considered a relevant pathogenic strain to study, and the 0111:B4 strain of E. coli (kindly provided by Dr. D. Morrison) which is a standard source of endotoxin. (Kelly, et al., Inf. Immun., 59:4491, 1991). In addition, P. aeruginosa PA01 strain H103, P. aeruginosa M2, P. aeruginosa K799, Eschericha coli UB 1005, Enterobacter cloacae 218S, Salmonella typhimurium MS7953s, Klebsiella pneumoniae ATCC 13883, Xanthomonas maltophilia ATCC 13637, and Acinetobacter calcoacetious 8193 were employed. LPS was obtained from E. coli Bort by the technique of Westphal and Jann, (Westphal, et al., Acad. Press, Inc. NY., 5:83) and from P. aeruginosa H103 by the method of Darveau and Hancock, (Darveau, et al., J. Bacteriol, 155:831, […]). E. coli 0111:B4 LPS was purchased from Sigma.

P. aeruginosa = test: Killing assay; assay type: cell-based, Pseudomonas aeruginosa; conditions: 2.5 μg/ml (0.9 μM), 10^6 cells/ml, 20 minutes
S. aureus = assay type: cell-based, Staphylococcus aureus
Method: as §1

Structure (SMILES): CC[C@H](C)[C@H](NC(=O)CNC(=O)[C@@H](NC(=O)[C@H](CCCCN)NC(=O)[C@H](CCCCN)NC(=O)[C@H](Cc1ccccc1)NC(=O)[C@H](CC(C)C)NC(=O)[C@H](CCCCN)NC(=O)[C@H](Cc1c[nH]c2ccccc12)NC(=O)[C@@H](N)CCCCN)[C@@H](C)CC)C(=O)NCC(=O)N[C@@H](C)C(=O)N[C@H](C(=O)N[C@@H](CC(C)C)C(=O)N[C@@H](CCCCN)C(=O)N[C@H](C(=O)N[C@@H](CC(C)C)C(=O)N[C@H](C(=O)N[C@H](C(=O)NCC(=O)N[C@@H](CC(C)C)C(=O)N1CCC[C@H]1C(=O)N[C@@H](C)C(=O)N[C@@H](CC(C)C)C(=O)N[C@H](C(=O)N[C@@H](CO)C(=O)O)[C@@H](C)CC)[C@@H](C)O)[C@@H](C)O)C(C)C)C(C)C [CEME]
- MIC (E. cloacae; Enterobacter cloacae 218S (Table 9)): 4 µg/mL (≈ 1.43 µM)
- MIC (E. cloacae; strain 218S, Parent of 218R1 (Table 2)): 2.4 µg/mL (≈ 0.859 µM)
- Survival (%) (P. aeruginosa strain M2): 26.7%
- Survival (survivors/total) (P. aeruginosa strain M2): 8/30
- MIC (P. AERUGINOSA H309; +5 mM Mg^++): 38.4 µg/mL (≈ 13.7 µM)
- MIC (P. AERUGINOSA H309; +80 mM Na^+): 4.8 µg/mL (≈ 1.72 µM)
- MIC (P. AERUGINOSA H309; No addition): 2.4 µg/mL (≈ 0.859 µM)
- permeabilization of outer membrane to lysozyme [1]: as was CEME, albeit only at lower concentrations
- MIC (E. coli; Escherichia coli 0111:B4): 4 µg/mL (≈ 1.43 µM)
- MIC (E. coli; Escherichia coli Bort): 6 µg/mL (≈ 2.15 µM)
- MIC (E. coli; Escherichia coli UB1005 (Table 9)): 4 µg/mL (≈ 1.43 µM)
- MIC (E. coli; strain DC2, Polymyxin sensitive): 0.6 µg/mL (≈ 0.215 µM)
- MIC (E. coli; strain SC9251, Parent of SC9252): 1.2 µg/mL (≈ 0.429 µM)
- MIC (E. coli; strain SC9252, Polymyxin resistant): 1.2 µg/mL (≈ 0.429 µM)
- MIC (E. coli; strain UB1005, Parent of DC2 (Table 2)): 2.4 µg/mL (≈ 0.859 µM)
- reduction of viable count (P. aeruginosa): three
- MIC (S. aureus; strain RN4220, Methicillin sensitive): 9.6 µg/mL (≈ 3.43 µM)
- MIC (S. aureus; strain SAP0017, Methicillin resistant): 9.6 µg/mL (≈ 3.43 µM)
